## Primary screen of a compound library

Source: ChEMBL document CHEMBL3988442, “University of Dundee, Small-Polar-MMV Screening Library” (2021).

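Assay of Toxoplasma gondii numbers, read through their beta-galactosidase reporter with a colour substrate. Concentration: 50 µM. The record gives no direction; the compounds picked for IC50 retests had high values, so higher reads as fewer parasites. Size under these conditions: about 18,000 compounds, about 170 of them at 50% or above in at least one test.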

Values are the deposited “Percent Effect”, in %. The controls that fix the scale are not given in the record; negative values are as filed. Compounds were drawn at random from those tested, without regard to their results.

Compound,effect
NC(=O)c1ncsc1Cl,27.3
Nc1ccc(N2CCCCC2)cn1,-7.088
CC1(C)CS(=O)(=O)CCN1,-1.298
Cc1cc(C)cc(NC(=O)CCNS(C)(=O)=O)c1,-17.31
CC[C@H](N)C(=O)N(CC)C(C)c1ccc(F)cc1 (some centres unmarked),2.862
CC1CN=C(N2CCN(C(=O)c3cccs3)CC2)S1 (centres unmarked),9.797
CCCNC(=O)Nc1ccc2c(c1)OCCO2,-26.7
O=C(CCc1ccccc1F)Nc1nnc[nH]1,18.93
Cc1nccn1CCCN1CCn2nc(CO)cc2C1,9.118
O=C1NCC(C(=O)NCc2cc(F)cc(Br)c2)N1 (centres unmarked),11.29
N#CCCCn1nnc(-c2ccccc2)n1,6.746
Cc1noc(C)c1CN(C)Cc1cc2n(n1)CCNC2,-16.35
COc1cccc(OC2CNC2)c1,21.49
COc1ccc2[nH]c(CCCN)nc2c1,-5.935
CCC(C)C(=O)NCCNc1cnccn1 (centres unmarked),10.02
CN(CC1CCC1)C(=O)c1ccc2nncn2c1,3.765
Cc1ccc(NC(=O)CCCc2nc(C)no2)nc1,-0.03985
COc1ccc(NC(=O)N(CCO)C(C)C)c(C)c1,4.641
COC(=O)N1CCN(CC(=O)N(C)CC(F)(F)F)CC1,-10.6
CN(Cc1ccc(N)nc1)c1cccc(C#N)n1,-25.14
CC(C)O[C@H]1C[C@@H](N)C1,-10.38
CCN(Cc1nc(N)nc(N(C)C)n1)CC1CCOC1 (centres unmarked),-2.532
COc1ccc(C(=O)N[C@@H]2CCNC[C@H]2O)c(C)c1,-9.049
CN(Cc1cc(Br)cs1)C(=O)CC1(N)CCC1,12.45
CCn1nccc1C(=O)Nc1ccccc1OC,2.51
CC(C)n1cnnc1C1CCNCC1,5.035
NCC1CCN1Cc1ccccc1 (centres unmarked),25.72
O=S(=O)(C1CC1)N1CCC(Nc2ccccn2)CC1,-1.062
Cn1nnnc1SCCNC(=O)c1cc(Cl)ccc1F,98.81
CC(C)NC(=O)N(C)C1CCS(=O)(=O)C1 (centres unmarked),-1.407
NC(=O)COc1cccc(CNCCn2cccn2)c1,-4.497
CC(NS(=O)(=O)c1cnn(C)c1)c1ccncc1 (centres unmarked),1.592
CC(C)c1ncc(C(=O)NC2(c3nnc[nH]3)CCC2)s1,-20.24
N#CCC(=O)c1ccccc1OC(F)F,-3.236
COCC(=O)NCC(c1ccsc1)N(C)C (centres unmarked),0.3404
CC(Oc1cccc(C#N)c1)C(=O)N1CCSCC1 (centres unmarked),-0.027
CC1(C)CN(CC(O)C(F)(F)F)CCO1 (centres unmarked),21.55
COc1cc(CNC2CCC(O)CC2)cc2c1OCO2 (centres unmarked),-21.24
Cn1ccnc1-c1nc2c([nH]1)CC(C)(C)CNC2=O,6.33
O=C(CC1CCS(=O)(=O)C1)NCCc1ccc(F)cc1 (centres unmarked),-0.9049
CCS(=O)(=O)c1ccc(CN)cc1F,10.08
CC(C)N(C)C(=O)C1CC(=O)N(C2CCCC2)C1 (centres unmarked),-1.793
CC(=O)Nc1cncc(Cl)n1,1.493
Cc1ccc(CCNC(=O)CSCCN2CCCC2)o1,-19.77
CS(=O)(=O)NCCNC(=O)c1ccc(C(F)(F)F)cc1,-2.035
CSc1cccc(C#N)n1,-8.899
O=S(=O)(NCC1CCCN1)c1cccc(F)c1 (centres unmarked),6.695
Cc1noc(C)c1CCC(=O)NC(C)c1ccccn1 (centres unmarked),3.677
COC(=O)c1ccc(CSc2nc(N)cc(O)n2)cc1,19.58
c1csc(CNCCCn2ccnc2)c1,14.79
CCOC(=O)c1cc(CC)n(CCC#N)n1,5.041
CNC(=O)c1cccc(NS(=O)(=O)c2ccccc2)c1,-16.11
Nc1nc(CCCNC(=O)CN2CCCC2)cs1,-2.096
COc1ccc(NC(C)C(=O)N2CCNC2=O)cc1 (centres unmarked),-10.27
CN(C(=O)c1cnn2cccnc12)C1CCCC1,-3.122
O=C(C1CCOCC1)N1CCCC(c2ncc[nH]2)C1 (centres unmarked),2.427
O=C(NCCSC1CCCC1)c1ccccn1,8.503
CCS(=O)(=O)N(C)CCCNc1cccc(C)n1,-17.11
CN1CCCN(C(=O)CC(C)(C)C)CC1,-5.162
CCN(CCO)Cc1cc(=O)n2ccsc2n1,8.312
NC(=O)N1CCCCCC1C1CCNCC1 (centres unmarked),99.53
NC(=O)C1CCCN(C(=O)CNc2ccccc2)C1 (centres unmarked),1.091

The last 6 entries again:

With O=C(NCCSC1CCCC1)c1ccccn1 the screen gave 8.503%.
With CCS(=O)(=O)N(C)CCCNc1cccc(C)n1 the screen gave -17.11%.
With CN1CCCN(C(=O)CC(C)(C)C)CC1 the screen gave -5.162%.
With CCN(CCO)Cc1cc(=O)n2ccsc2n1 the screen gave 8.312%.
With NC(=O)N1CCCCCC1C1CCNCC1 (centres unmarked) the screen gave 99.53%.
With NC(=O)C1CCCN(C(=O)CNc2ccccc2)C1 (centres unmarked) the screen gave 1.091%.